No constants are given. Whether binding was seen depends on the method and setting. Some entries that bind do so weakly or less than the wild type.
Target: T1, α subunit of human NAD-dependent isocitrate dehydrogenase (IDH3) (human), P50213
T1 chain: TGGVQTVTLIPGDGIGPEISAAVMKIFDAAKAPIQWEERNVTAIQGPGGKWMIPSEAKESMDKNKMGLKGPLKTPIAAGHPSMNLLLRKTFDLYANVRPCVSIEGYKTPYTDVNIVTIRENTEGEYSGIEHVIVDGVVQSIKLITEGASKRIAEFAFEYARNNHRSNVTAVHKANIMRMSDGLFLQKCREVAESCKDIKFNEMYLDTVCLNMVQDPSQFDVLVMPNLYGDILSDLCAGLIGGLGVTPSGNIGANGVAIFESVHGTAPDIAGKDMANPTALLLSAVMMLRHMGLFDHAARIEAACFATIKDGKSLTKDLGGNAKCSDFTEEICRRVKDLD
Assay: crystal structure
Conditions: remark: other sources report otherwise

binding: binds
B1: α subunit of human NAD-dependent isocitrate dehydrogenase (IDH3) (natural protein)
chain: TGGVQTVTLIPGDGIGPEISAAVMKIFDAAKAPIQWEERNVTAIQGPGGKWMIPSEAKESMDKNKMGLKGPLKTPIAAGHPSMNLLLRKTFDLYANVRPCVSIEGYKTPYTDVNIVTIRENTEGEYSGIEHVIVDGVVQSIKLITEGASKRIAEFAFEYARNNHRSNVTAVHKANIMRMSDGLFLQKCREVAESCKDIKFNEMYLDTVCLNMVQDPSQFDVLVMPNLYGDILSDLCAGLIGGLGVTPSGNIGANGVAIFESVHGTAPDIAGKDMANPTALLLSAVMMLRHMGLFDHAARIEAACFATIKDGKSLTKDLGGNAKCSDFTEEICRRVKDLD
